Structures can show the parent of a compound that is named as a salt. Some of the results follow. Most entries show no effect beyond the scatter of the controls.
tested on: hPSC-derived cortical neurons (WA09); test: KCl-induced FOS+/EGR-1+ double-positive nuclei fraction z-score (KCl minus unstimulated); higher = stronger activity-induced IEG response; conditions: 5 µM; treatment: days 7-14 after plating, readout day 21

| Structure (SMILES) | KCl-induced FOS+/EGR-1+ double-positive nuclei fraction z-score |
| --- | --- |
| O=c1cc(-c2ccccc2)oc2cc(O)cc(O)c12 [Chrysin] | 0.126 |
| CC1(C)S[C@@H]2[C@H](NC(=O)[C@H](NC(=O)N3CCNC3=O)c3ccccc3)C(=O)N2[C@H]1C(=O)O [Azlocillin sodium salt] | -0.306 |
| COc1ncc(-c2ccc3nccc(-c4ccnnc4)c3c2)cc1NS(=O)(=O)c1ccc(F)cc1F | 1.13 |
| COc1ccc(Cn2ccc3ccc(C(=O)NO)cc32)cc1 | 0.617 |
| Cc1[nH]c(/C=C2\C(=O)Nc3ccc(S(=O)(=O)N(C)c4cccc(Cl)c4)cc32)c(C)c1C(=O)N1CCN(C)CC1 | 1.67 |
| CC(C)CCN1c2nc(Nc3cc(F)c(O)c(F)c3)ncc2N(C)C(=O)C1C (centres undefined) | 0.882 |
| CCCCCCOC(=O)NC(=N)c1ccc(NCc2nc3cc(C(=O)N(CCC(=O)OCC)c4ccccn4)ccc3n2C)cc1 [Dabigatran Etexilate] | -0.921 |
| CCN(c1cc(C#CCN2CCOCC2)cc(C(=O)NCc2c(C)cc(C)[nH]c2=O)c1C)[C@H]1CC[C@H](N(C)CCOC)CC1 | 0.71 |
| O=C(Oc1cc(S(=O)(=O)c2ccccc2)ccc1[N+](=O)[O-])c1ccc(Cl)cc1 | 0.63 |
| CC(C)C[C@H](NC(=O)CNC(=O)c1cc(Cl)ccc1Cl)B(O)O | -1.15 |
| C[C@H](N)[C@H](O)c1cccc(O)c1 [Metaraminol Bitartrate] | 1.46 |
| CC1(C)[C@H](C(=O)O)N2C(=O)C[C@H]2S1(=O)=O [Sulbactam] | -1.38 |
| COC(=O)c1ccc([C@H]2c3[nH]c4ccccc4c3C[C@H](C(=O)OC)N2C(=O)CCl)cc1 | -0.0954 |
| C=C1/C(=C\C=C2/CCC[C@]3(C)[C@@H]([C@H](C)CCCC(C)C)CC[C@@H]23)C[C@@H](O)C[C@@H]1O [Alfacalcidol] | 0.302 |
| O=c1ccc2ccc(O)c(O)c2o1 [Daphnetin] | -0.128 |
| CCCCN1CCCC[C@H]1C(=O)Nc1c(C)cccc1C [Levobupivacaine HCl] | 1.33 |
| O=C(Nc1ccccc1-c1cn2c(CN3CCNCC3)csc2n1)c1cnc2ccccc2n1 | 0.397 |
| N#CC[C@H](C1CCCC1)n1cc(-c2ncnc3[nH]ccc23)cn1 | 1.32 |
| CCCNC(C)C(=O)Nc1ccccc1C (centres undefined) [Prilocaine] | 1.6 |
| CNc1nc(-c2ccc3c(N)n[nH]c3c2)cc(N2C[C@@H](C(=O)NC3CCCCC3)CC[C@H]2C)n1 | -0.0383 |

| Structure (SMILES) | KCl-induced FOS+/EGR-1+ double-positive nuclei fraction z-score |
| --- | --- |
| COCC(=O)NC/C=C/c1ccc2ncnc(Nc3ccc(Oc4ccc(C)nc4)c(C)c3)c2c1 | 0.517 |
| Clc1ccc2c(c1)CCc1cccnc1C2=C1CCNCC1 [Desloratadine] | 0.335 |
| CN(C)C(=N)NC(=N)N [Metformin HCl] | -0.145 |
| COc1ccc(CNCc2cccc3ccccc23)cc1 | 0.947 |
| CC(C)OC(=O)C(C)(C)Oc1ccc(C(=O)c2ccc(Cl)cc2)cc1 [Fenofibrate] | 0.297 |
| Cn1cc(-c2ccc3c(c2)CCN3C(=O)Cc2cccc(C(F)(F)F)c2)c2c(N)ncnc21 | 0.525 |
| Cc1cn([C@H]2C=C[C@@H](CO)O2)c(=O)[nH]c1=O [Stavudine (d4T)] | 1.33 |
| COc1cc2ncnc(Nc3cccc(Cl)c3)c2cc1OC [AG-1478 (Tyrphostin AG-1478)] | 1.52 |
| CC(C)N(CCC(=O)c1ccc2ccccc2c1)Cc1ccccc1 | -0.552 |
| COCCCN1CCC(NC(=O)c2cc(Cl)c(N)c3c2OCC3)CC1 [Prucalopride Succinat] | -1.3 |
| N=C(N)Nc1ccc(C(=O)Oc2ccc3cc(C(=N)N)ccc3c2)cc1 [Nafamostat Mesylate] | 0.0145 |
| O=C1C2CC3CC1CC(O)(C3)C2 [Idramantone] | -0.295 |
| CSc1nc2cc(Cl)c(Oc3cccc(Cl)c3Cl)cc2[nH]1 [Triclabendazole] | -0.416 |
| O=C(c1ccccc1)c1ccc2n1CCC2C(=O)O (centres undefined) [Ketorolac] | 0.5 |
| Cc1cnc(-c2cc(N3CCN(C(=O)CCS(C)(=O)=O)CC3)ncc2Cl)c(C)c1 | 1.94 |
| CC(C)OC(=O)C1=CN(C(=O)c2ccc(F)c(F)c2)CC(C)(C)c2c1[nH]c1ccccc21 | 0.629 |
| OCCn1cc(-c2cnc3nnn(Cc4ccc5ncccc5c4)c3n2)cn1 | 0.86 |
| O=C(O)C1=CO[C@@H](O[C@@H]2O[C@H](CO)[C@@H](O)[C@H](O)[C@H]2O)[C@@H]2C(CO)=CC[C@H]12 [Geniposidic acid] | 0.476 |
| NCC[C@H](O)C(=O)N[C@@H]1C[C@H](N)[C@@H](O[C@H]2O[C@H](CN)[C@@H](O)[C@H](O)[C@H]2O)[C@H](O)[C@H]1O[C@H]1O[C@H](CO)[C@@H](O)[C@H](N)[C@H]1O [Amikacin disulfate] | 5.09 |

Three entries already listed, sorted by molecular weight, low to high:

| Structure (SMILES) | KCl-induced FOS+/EGR-1+ double-positive nuclei fraction z-score |
| --- | --- |
| COc1cc2ncnc(Nc3cccc(Cl)c3)c2cc1OC [AG-1478 (Tyrphostin AG-1478)] | 1.52 |
| N=C(N)Nc1ccc(C(=O)Oc2ccc3cc(C(=N)N)ccc3c2)cc1 [Nafamostat Mesylate] | 0.0145 |
| O=C(O)C1=CO[C@@H](O[C@@H]2O[C@H](CO)[C@@H](O)[C@H](O)[C@H]2O)[C@@H]2C(CO)=CC[C@H]12 [Geniposidic acid] | 0.476 |

— the supplement of paper PMC11348887
